Laboratory results as given in the supplement of paper PMC8975748.
Structures can show the parent of a compound that is named as a salt. ± gives the standard deviation of the averaged measurements. The list shows a part of the results. These are raw signals, not scaled to a control.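 The yeast community starts from one strain carrying four plasmids, each with an amino-acid or uracil synthesis gene and a fluorescent protein. Random plasmid loss creates mixed prototroph and auxotroph subpopulations. Cells were fixed and counted by automated confocal fluorescence imaging, and DMSO-treated wells served as the vehicle reference.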

test system: Saccharomyces cerevisiae BY4741 SeMeCo community; experiment: imaged cell count per well (cells); higher = more cells; settings: 10 µM; 24 h; SM minimal medium
Method: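 Same SeMeCo high-content imaging drug screen: Selleck FDA-approved drugs at 10 µM, 24 h in SM medium, 384-well plates, 3 replicates.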

SMILES | imaged cell count per well
N[C@@H]1CONC1=O [D-Cycloserine] | 28500 ± 3400
COc1cc(NS(=O)(=O)c2ccc(N)cc2)nc(OC)n1 [SulfadiMethoxine sodium] | 25300 ± 3900
Cc1cc(-n2c(=O)[nH]c(=O)n(C)c2=O)ccc1Oc1ccc(SC(F)(F)F)cc1 [Toltrazuril] | 22900 ± 4600
CC(=O)OCC[N+](C)(C)C [Acetylcholine iodide] | 27000 ± 2200
C#CCC(Cc1cnc2nc(N)nc(N)c2n1)c1ccc(C(=O)N[C@@H](CCC(=O)O)C(=O)O)cc1 (stereo not given in full) [Pralatrexate] | 13500 ± 2100
C/C=C\c1ccc(O)c(OC)c1 [Isoeugenol] | 27800 ± 5600
CC(C)[C@H](N)C(=O)OCC(CO)OCn1cnc2c(=O)[nH]c(N)nc21 (stereo not given in full) [Valganciclovir HCl] | 19900 ± 4300
O=C(O)c1ccccc1O [Salicylic acid] | 24500 ± 4500
CCCCc1oc2ccc(NS(C)(=O)=O)cc2c1C(=O)c1ccc(OCCCN(CCCC)CCCC)cc1 [Dronedarone HCl] | 19300 ± 8700
CS(=O)(=O)Nc1ccc([N+](=O)[O-])cc1Oc1ccccc1 [Nimesulide] | 22400 ± 1800
COc1cc(O)c(C(=O)Nc2nc(C(=O)NCCN(C(C)C)C(C)C)cs2)cc1OC [Acotiamide] | 28900 ± 3600
Cc1ncc([N+](=O)[O-])n1CC(C)O (stereo not given) [Secnidazole] | 23300 ± 4900
C[C@H]1c2cccc(O)c2C(=O)C2=C(O)[C@]3(O)C(=O)C(C(N)=O)=C(O)[C@@H](N(C)C)[C@@H]3[C@@H](O)[C@@H]21 [Doxycycline] | 26500 ± 3000
Oc1c(Cl)cc(Cl)c(Cl)c1Cc1c(O)c(Cl)cc(Cl)c1Cl [Hexachlorophene] | 3630 ± 640
OCc1ccc(Cl)cc1Cl [2,4-dichlorobenzyl alcohol] | 20800 ± 4600
NC[C@@H]1O[C@H](O[C@H]2[C@@H](O)[C@H](O[C@@H]3[C@@H](O)[C@H](N)C[C@H](N)[C@H]3O[C@H]3O[C@H](CO)[C@@H](O)[C@H](O)[C@H]3N)O[C@@H]2CO)[C@H](N)[C@@H](O)[C@@H]1O [Paromomycin Sulfate] | 19800 ± 4200
CN(C)CCC=C1c2ccccc2C=Cc2ccccc21 [Cyclobenzaprine HCl] | 18900 ± 4900
CC(C(=O)O)c1ccc2c(c1)[nH]c1ccc(Cl)cc12 (stereo not given) [Carprofen] | 14800 ± 3400
C=CCCCCCCCCC(=O)[O-].C=CCCCCCCCCC(=O)[O-].[Zn+2] [Zinc Undecylenate] | 32500 ± 4700
CC(=O)OCC(CCn1cnc2cnc(N)nc21)COC(C)=O [Famciclovir] | 13600 ± 1800

SMILES | imaged cell count per well
CN[C@@H]1[C@@H](O)[C@@H](O[C@@H]2[C@@H](O)[C@H](O[C@H]3O[C@H](CN)[C@@H](O)[C@H](O)[C@H]3O)[C@@H](N)C[C@H]2NC(=O)[C@@H](O)CN)OC[C@]1(C)O [Isepamicin Sulphate] | 22600 ± 5000
CN1[C@@H]2CC[C@H]1C[C@@H](OC(=O)c1c[nH]c3ccccc13)C2 [Tropisetron] | 29000 ± 3400
CO[C@H]1O[C@@H]2O[C@@]3(C)CC[C@H]4[C@H](C)CC[C@@H]([C@H]1C)[C@@]24OO3 [Artemether] | 20300 ± 3200
CC1(C)S[C@@H]2[C@H](NC(=O)C(c3ccccc3)S(=O)(=O)O)C(=O)N2[C@H]1C(=O)O (stereo not given in full) [Sulbenicillin Sodium] | 15500 ± 6600
CC1(C)S[C@@H]2[C@H](NC(=O)[C@H](C(=O)O)c3ccsc3)C(=O)N2[C@H]1C(=O)O [Ticarcillin sodium] | 21900 ± 7200
Oc1cccc(O)c1 [Resorcinol] | 25800 ± 5200
C#C[C@]1(O)CC[C@H]2[C@@H]3CCC4=CCCC[C@@H]4[C@H]3CC[C@@]21C [Lynestrenol] | 22300 ± 5800
CCN(CC)CC#CCOC(=O)C(O)(c1ccccc1)C1CCCCC1 (stereo not given) [Oxybutynin] | 20900 ± 5600
CC(=O)NC[C@H]1CN(c2ccc(N3CCOCC3)c(F)c2)C(=O)O1 [Linezolid] | 21700 ± 4400
C[n+]1ccccc1/C=N/O [Pralidoxime chloride] | 27000 ± 1800
CC(C)NNC(=O)c1ccncc1 [Iproniazid] | 23200 ± 7300
COc1ccnc(C[S+]([O-])c2nc3cc(-n4cccc4)ccc3[nH]2)c1C (stereo not given) [Ilaprazole] | 22500 ± 9600
CC1(C)[C@H](C(=O)O)N2C(=O)C[C@H]2S1(=O)=O [Sulbactam] | 28300 ± 1600
NC(=O)OCC(COC(N)=O)c1ccccc1 [Felbamate] | 27100 ± 2000
C[N+]1(C)[C@@H]2C[C@@H](OC(=O)C(O)(c3cccs3)c3cccs3)C[C@H]1[C@@H]1O[C@@H]12 [Tiotropium Bromide hydrate] | 23400 ± 3100
COCCCOc1ccnc(C[S+]([O-])c2nc3ccccc3[nH]2)c1C (stereo not given) [Rebeprazole sodium] | 22300 ± 2000
CO/N=C1\C[C@]2(C[C@@H]3C[C@@H](C/C=C(\C)C[C@@H](C)/C=C/C=C4\CO[C@@H]5[C@H](O)C(C)=C[C@@H](C(=O)O3)[C@]45O)O2)O[C@H](/C(C)=C/C(C)C)[C@H]1C [Moxidectin] | 23200 ± 6900
CC(C)n1c(/C=C/C(O)CC(O)CC(=O)O)c(-c2ccc(F)cc2)c2ccccc21 (stereo not given) [Fluvastatin Sodium] | 2970 ± 510
CC[C@@H]1C(=O)OC[C@@H]1Cc1cncn1C [Pilocarpine HCl] | 19200 ± 8600
C[C@]12CC[C@@H]3c4ccc(OS(=O)(=O)O)cc4CC[C@H]3[C@@H]1CCC2=O [Estropipate] | 26300 ± 3500

Copied from the list:
For imaged cell count per well, CCN(CC)CC#CCOC(=O)C(O)(c1ccccc1)C1CCCCC1 (stereo not given) [Oxybutynin] shows 20900 ± 5600
For imaged cell count per well, COc1ccnc(C[S+]([O-])c2nc3cc(-n4cccc4)ccc3[nH]2)c1C (stereo not given) [Ilaprazole] shows 22500 ± 9600
